Laboratory results from PubChem BioAssay AID504834 (National Center for Advancing Translational Sciences (NCATS), 2011).
Hit rate of the full screen: of about 320,000 compounds, about 22,000 (6.9%) were called active. Inconclusive means that the source gave no clear call. Such entries were picked first, then a sample of the others. Calls follow the shape of the dose curve; as a rule, active = well fitted inhibition curve with a large enough effect; inconclusive = small, poorly fitted or top-dose-only effect, or another doubt; inactive = no such curve, though single readings can be large or run the other way. A potency beside an inconclusive call is a rough fit, not a confirmed value.

Test: Primary qHTS for delayed death inhibitors of the malarial parasite plastid, 96 hour incubation
Settings: P. falciparum luciferase reporter growth; series mostly up to 28.7 µM
Summary of the method: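 P. falciparum expressing integrated firefly luciferase, in erythrocytes at 2% hematocrit, 0.05% parasitemia, incubated with compounds 96 h at 37 C, 5% CO2. Growth inhibition read as loss of luminescence; two-generation exposure targets delayed-death apicoplast inhibitors.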
Potency is read from the fitted curve at half-maximal effect.

Compound	Potency
COc1cc(-c2nc3ccc(C)cn3c2Nc2ccc3c(c2)OCCO3)ccc1O	active: 13.1 µM
CC(C)Cc1nc(SCc2cccnc2)c2c(=O)n(C)c(=O)n(C)c2n1	inconclusive: 6.57 µM [inhibitor, partial curve]
Cc1ccc(S(=O)(=O)N2CCC(C(=O)N3CC(C)OC(C)C3)CC2)cc1 (stereo not drawn)	inconclusive: 4.15 µM [inhibitor, partial curve, poor fit]
Cc1ccc(/C(N)=N/OC(=O)c2ccc3c(c2)OCO3)cc1	active: 5.86 µM
CN(Cc1nc2ccc(F)cc2[nH]1)Cc1nc(CC2CC2)no1	inconclusive: 4.65 µM [inhibitor, single point]
N#CC1(P(=O)(c2ccccc2)c2ccccc2)CC1	inconclusive: 3.7 µM [inhibitor, partial curve, poor fit]
Cc1ccccc1NC(=O)c1cccc(S(=O)(=O)Oc2ccc([N+](=O)[O-])cc2)c1	inconclusive: 0.37 µM [inhibitor, full curve, poor fit]
c1csc(-c2nn[nH]n2)c1	inconclusive: 18.5 µM [inhibitor, single point]
COc1ccc(C(=O)N[C@H]2COC(C)(C)O[C@H]2c2ccccc2)cc1	inconclusive: 18.5 µM [inhibitor, single point]
COc1ccc([N+](=O)[O-])cc1NC(=S)NC(NC(=O)C(c1ccccc1)c1ccccc1)C(Cl)(Cl)Cl (stereo not drawn)	inconclusive: 5.86 µM [inhibitor, partial curve, poor fit]
O=C(/C=C1\SC(=O)N(CC(=O)Nc2ccc(Cl)cc2)C1=O)Nc1ccc(F)cc1	inactive
O=C(CC1C(=O)NCCN1Cc1ccccn1)NCCc1ccccc1F (stereo not drawn)	inconclusive: 11.7 µM [inhibitor, single point]
COc1ccc(/C=C(/NC(=O)c2ccccc2Cl)C(=O)NCCCC(=O)O)cc1	inactive
CCOC(=O)Cn1c(C)cc(=O)c2cccc(C)c21	inactive
CCOC(=O)C1(CCCc2ccccc2)CCN(C2CCN(C(C)=O)CC2)CC1	inconclusive: 13.1 µM [inhibitor, single point]
COc1ccc(OC)c(/C=C2\NC(=O)NC2=O)c1	inconclusive: 18.5 µM [inhibitor, single point]
Cc1ccc2nc3c(nc2c1C)CCCC3	inactive
CC(=O)N1CCN(CC(=O)Nc2ccc(C)c(F)c2)CC1	inconclusive: 0.586 µM [inhibitor, full curve]
CCOC(=O)C1=C(CN2CCCCCC2)NC(=O)NC1c1cccc([N+](=O)[O-])c1 (stereo not drawn)	inactive
Cc1ccc(N=Nc2c(O)c3ccccc3[nH]c2=O)c(S(=O)(=O)N(C)C)c1	inconclusive: 11.7 µM [inhibitor, partial curve, poor fit]
COc1ccccc1N(CC(=O)N1CCN(c2ccccc2)CC1)S(=O)(=O)c1ccc(C)cc1	inconclusive: 18.5 µM [inhibitor, single point]
O=C(CN1C(=O)NC2(CCCC2)C1=O)OCc1cccc(Br)c1	inactive
Cc1sc(NC(=O)CSc2ncn(-c3ccccc3)n2)nc1-c1ccccc1	inconclusive: 18.5 µM [inhibitor, single point]

Compound	Potency
CS(=O)(=O)c1ccc(C(=O)NCCN2C(=O)S/C(=C\c3cccnc3)C2=O)cc1[N+](=O)[O-]	inconclusive: 1.04 µM [inhibitor, partial curve, poor fit]
O=C(Nc1ccccc1)C1CC2CCCC(C1)C2=O (stereo not drawn)	active: 3.7 µM
O=C(NCc1cccc(F)c1F)C1CCC(=O)N(C2CCCCCC2)C1 (stereo not drawn)	inactive
CC1CC(C)CN(S(=O)(=O)c2ccc3c(c2)CC(C)N3C(=O)C2CCC2)C1 (stereo not drawn)	inconclusive: 20.8 µM [inhibitor, single point]
COc1ccc(Cl)cc1NC(=O)NCCCl	inconclusive: 0.465 µM [inhibitor, full curve, poor fit]
Cc1ccc(C)c(NC(=O)CN(C)C(=O)c2cc(-c3cccs3)nn2-c2ccccc2)c1	inactive
COc1cccc2cc(/C(C)=N/NC(=O)c3ccco3)oc12	inconclusive: 2.33 µM [inhibitor, partial curve, poor fit]
Cc1ccc(NC(=O)c2ccc(F)cc2)cc1S(=O)(=O)N1CCCCCC1	inconclusive: 9.28 µM [inhibitor, single point]
C=Cc1cccc(NC(=O)c2ccc(NC(=O)c3ccco3)cc2)c1	active: 1.47 µM
Oc1ccc(O)c(Cc2nc3ccccc3[nH]2)c1	inactive
Cc1cc(SCC(=O)NCCCN2CCCC2=O)nc2ccccc12	inactive
CC(=O)Nc1ccc(S(=O)(=O)NNC(=O)CCc2ccccc2)cc1	inconclusive: 13.1 µM [inhibitor, single point]
O=C(NCc1ccco1)C1CCN(c2ccc(S(=O)(=O)N3CCOCC3)cc2[N+](=O)[O-])CC1	inconclusive: 1.85 µM [inhibitor, single point]
Cc1ccn2cc(C34CC5CC(CC(C5)C3)C4)nc2c1	inconclusive: 13.1 µM [inhibitor, single point]
O=C(COC(=O)c1cccnc1)Nc1ccccc1	inconclusive: 6.57 µM [inhibitor, partial curve, poor fit]
O=C(c1ccc(Cl)cc1)C1CCCN(C(=O)c2csnn2)C1 (stereo not drawn)	inconclusive: 18.5 µM [inhibitor, single point]
CC1CCN(C(=O)CSc2nc(C(C)C)nc3c2c(=O)n(C)c(=O)n3C)CC1	inconclusive: 10.4 µM [inhibitor, partial curve, poor fit]
CCN(CC)S(=O)(=O)c1ccc(N2CCOCC2)c(NC(=O)CC2OC(=O)c3ccccc32)c1 (stereo not drawn)	inconclusive: 10.4 µM [inhibitor, partial curve, poor fit]
COc1ccc(CCNc2ncnc3c2nnn3Cc2ccccc2)cc1	active: 2.94 µM
CS(=O)(=O)Nc1ccc(C2=NN(C(=O)c3ccco3)C(c3ccc(F)cc3)C2)cc1 (stereo not drawn)	inconclusive: 18.5 µM [inhibitor, single point]
CCCCN(C)C(=O)c1cccc(OC2CCN(CC(C)(C)C)CC2)c1	active: 13.1 µM
COc1ccc(S(=O)(=O)N2CCOC2CNC(=O)C(=O)NCCc2c[nH]c3ccccc23)cc1 (stereo not drawn)	inconclusive: 10.4 µM [inhibitor, partial curve, poor fit]
O=C(CC12CC3CC(CC(C3)C1)C2)Nc1ccccc1N1CCOCC1	inconclusive: 10.4 µM [inhibitor, single point]

Of the compounds above, these contain a halogen.
Compound	Potency
CN(Cc1nc2ccc(F)cc2[nH]1)Cc1nc(CC2CC2)no1	inconclusive: 4.65 µM [inhibitor, single point]
COc1ccc([N+](=O)[O-])cc1NC(=S)NC(NC(=O)C(c1ccccc1)c1ccccc1)C(Cl)(Cl)Cl (stereo not drawn)	inconclusive: 5.86 µM [inhibitor, partial curve, poor fit]
O=C(/C=C1\SC(=O)N(CC(=O)Nc2ccc(Cl)cc2)C1=O)Nc1ccc(F)cc1	inactive
O=C(CC1C(=O)NCCN1Cc1ccccn1)NCCc1ccccc1F (stereo not drawn)	inconclusive: 11.7 µM [inhibitor, single point]
COc1ccc(/C=C(/NC(=O)c2ccccc2Cl)C(=O)NCCCC(=O)O)cc1	inactive
CC(=O)N1CCN(CC(=O)Nc2ccc(C)c(F)c2)CC1	inconclusive: 0.586 µM [inhibitor, full curve]
O=C(CN1C(=O)NC2(CCCC2)C1=O)OCc1cccc(Br)c1	inactive
O=C(NCc1cccc(F)c1F)C1CCC(=O)N(C2CCCCCC2)C1 (stereo not drawn)	inactive
COc1ccc(Cl)cc1NC(=O)NCCCl	inconclusive: 0.465 µM [inhibitor, full curve, poor fit]
Cc1ccc(NC(=O)c2ccc(F)cc2)cc1S(=O)(=O)N1CCCCCC1	inconclusive: 9.28 µM [inhibitor, single point]
O=C(c1ccc(Cl)cc1)C1CCCN(C(=O)c2csnn2)C1 (stereo not drawn)	inconclusive: 18.5 µM [inhibitor, single point]
CS(=O)(=O)Nc1ccc(C2=NN(C(=O)c3ccco3)C(c3ccc(F)cc3)C2)cc1 (stereo not drawn)	inconclusive: 18.5 µM [inhibitor, single point]

Following part.

Compound	Potency
COc1cccc(/C=N/NC(=O)c2ccccc2NC(=O)c2ccco2)c1OC	inactive
COc1cc(OC)c(C(=S)N2CCCC2)cc1OC	inconclusive: 2.94 µM [inhibitor, single point]
Cc1ccccc1/C=C/c1nc2ccccc2c(=O)[nH]1	inactive
O=C(NC1CCCC1)c1ccc(CNc2c(N3CCOCC3)c(=O)c2=O)cc1	inactive
COc1ccc(CCN(C)Cc2c(O)ccc3cc(Br)ccc23)cc1OC	inconclusive: 11.7 µM [inhibitor, single point]
CCO/C=C/C(O)(CNC(=O)c1ccc(C(C)(C)C)cc1)C(F)(F)F (stereo not drawn)	inconclusive: 0.0828 µM [inhibitor, full curve, poor fit]
CCOc1cc(/C=C(/NC(C)=O)C(=O)O)cc(Cl)c1OCc1ccc(Br)cc1	inconclusive: 10.4 µM [inhibitor, partial curve, poor fit]
O=C(COc1ccc2c(c1)OCO2)Nc1nccs1	inconclusive: 9.28 µM [inhibitor, single point]
C/C(=N\Nc1ccccc1)c1cc2ccccc2oc1=O	inconclusive: 10.4 µM [inhibitor, partial curve, poor fit]
Clc1ccccc1OCCCCN1CCCC1	inconclusive: 0.0033 µM [inhibitor, full curve]
Cc1c(C(=O)N2CCOCC2)oc2ccc(S(=O)(=O)N3CCCC3)cc12	inconclusive: 10.4 µM [inhibitor, partial curve, poor fit]
Cc1ccc2nc(/C(C#N)=C\c3ccc(OC(=O)c4cccs4)cc3)[nH]c2c1	active: 9.28 µM
NC(=O)[C@@H]1[C@@H]2C(=O)N(c3ccc(F)cc3)C(=O)[C@@H]2[C@H]2C=Cc3ccccc3N21	inconclusive: 18.5 µM [inhibitor, single point]
O=C(Nc1n[nH]c(C(F)(F)F)n1)C1CC1	inactive
O=C(CN(C(=O)Cn1nnc(-c2ccc(F)cc2)n1)c1cccc(F)c1)NC1CCCC1	inconclusive: 10.4 µM [inhibitor, single point]
CC1(C)CC(NC(=O)C(c2ccccc2)c2ccccc2)CC(C)(C)N1	inconclusive: 3.29 µM [inhibitor, single point]
CC(C)(C)NC(=O)COc1ccccc1C#N	inactive
Cc1ccc(SCc2cc(-c3ccc(Cl)cc3)no2)cc1	inconclusive: 4.15 µM [inhibitor, single point]
O=C(Nc1cc(=O)[nH]c(=O)[nH]1)c1cccc(Br)c1	inconclusive: 0.0657 µM [inhibitor, full curve, poor fit]
C=CCc1cc(C=O)cc(OC)c1OCc1ccc(Cl)cc1	inconclusive: 2.33 µM [inhibitor, partial curve, poor fit]
O=S(=O)(NCCCCNS(=O)(=O)c1c(F)cccc1F)c1ccc2c(c1)OCCO2	inconclusive: 11.7 µM [inhibitor, partial curve, poor fit]
COc1ccc(Cc2nnc(SCC(=O)Nc3ccccc3C#N)o2)cc1	inconclusive: 0.0033 µM [inhibitor, full curve, poor fit]

Some of the entries so far, as a markdown table:

| Compound | Potency |
| --- | --- |
| O=C(CN(C(=O)Cn1nnc(-c2ccc(F)cc2)n1)c1cccc(F)c1)NC1CCCC1 | inconclusive: 10.4 µM [inhibitor, single point] |
| CC1(C)CC(NC(=O)C(c2ccccc2)c2ccccc2)CC(C)(C)N1 | inconclusive: 3.29 µM [inhibitor, single point] |
